# “Also recorded” adds a separate entry of the source. For some assays here: The name of at least one read-out is uncertain. For some assays here: For at least one compound, name, drawing or mass did not settle the structure.
# Assays:
# [1] = normal BBB, systemic administration (Lahmann et al.); cited from earlier work
# SUR1 = SUR1 expression after local ERT2 activation in Abcc8loxP/loxP/GFAP-Cre/ERT2 mice; format: in vivo, mouse; details: nerve application
# [2] = tested on: mice with peripheral nerve injury (PNI) by sciatic nerve cuffing; experiment: Sciatic nerve cuff model of neuropathic pain: mechanical allodynia (von Frey filaments); format: in vivo, mouse; details: Abcc8loxP/loxP/GFAP-Cre/ERT2 mice, local ERT2 activation
# Description: WT mice underwent unilateral PNI by sciatic nerve cuffing, a widely accepted model of neuropathic pain in mice (Valcin et al. The sciatic nerve cuffing model of neuropathic pain in mice, J Vis Exp, PMID: 25078668 (2014)). Sciatic nerve cuffing reliably induces signs of chronic pain, including sustained mechanical and thermal allodynia. In this model, mechanical allodynia assessed using von Frey filaments develops within 1 week, and is sustained thereafter.
# Sciatic nerve cuff model of neuropathic pain (Valcin et al. The sciatic nerve cuffing model of neuropathic pain in mice, J Vis Exp, PMID: 25078668 (2014)). Surgeries are performed under ketamine/xylazine anesthesia using aseptic techniques. […]
# Mechanical hypersensitivity. The threshold for ipsi- and contralateral hindpaw withdrawal is determined using von Frey filaments (Chaplan et al., Quantitative assessment of tactile allodynia in the rat paw, J Neurosci Methods, 53:55-63, PMID: 7990513(1994)).Mice are placed in clear Plexiglas boxes on an elevated mesh screen.
# Calibrated von Frey filaments are applied to the plantar surface of each hindpaw (0.16-15 gm). The “up-down method” (Chaplan et al., Quantitative assessment of tactile allodynia in the rat paw, J Neurosci Methods, 53:55-63, PMID: 7990513(1994)) is used to determine the withdrawal threshold. […]
compound,measurement,setting,value
COc1ccc(Cl)cc1C(=O)NCCc1ccc(S(=O)(=O)NC(=O)NC2CCCCC2)cc1 [glibenclamide],permeability of normal blood-brain barrier / entry into uninjured CNS,[1],poorly permeable; also recorded: not permeable; also recorded: excluded from the uninjured CNS
CC/C(=C(\c1ccc(O)cc1)c1ccc(OCCNC)cc1)c1ccccc1 [endoxifen],SUR1 in sciatic nerve glia,SUR1,downregulated
same,SUR1 upregulation by dorsal horn astrocytes,SUR1,does not prevent SUR1 upregulation
same,mechanical allodynia,[2]; applied on the sciatic nerve (perineural device) before cuffing,did not protect
same,mechanical allodynia,[2]; intrathecal delivery at L6-S1 before cuffing,effectively prevented
